Like-named read-outs stand apart in the source and are kept apart here. Results are given in words; binding and its absence hold for the method and conditions named. For part of these data: In cells and extracts the contact can be indirect. Some entries that bind do so weakly or less than the wild type. For part of these data: Tags and fused reporters may be left off the sequences shown.
Assays:
[1] = target: PP2AC3, yeast two-hybrid fusion (Arabidopsis thaliana) (UniProt Q07100); assay: two-hybrid; yeast; 4D selective medium lacking Trp/Leu/His/Ade; with or without 50 x 10^-6 M ABA
[2] = target: PP2AC5, yeast two-hybrid fusion (Arabidopsis thaliana) (UniProt O04951); assay: as above
[3] = target: PP2AC2, yeast two-hybrid fusion (Arabidopsis thaliana) (UniProt Q07098); assay: as above
[4] = target: PP2AC1, yeast two-hybrid fusion (Arabidopsis thaliana) (UniProt Q07099); assay: as above
[5] = target: PP2AC4, yeast two-hybrid fusion (Arabidopsis thaliana) (UniProt P48578); assay: as above
[6] = target: PP2A catalytic subunit PP2AC3 (Arabidopsis thaliana) (UniProt Q07100); assay: co-IP; in vivo; for PYL1 with or without treatment with 10 x 10^-6 M ABA for 4 h
[7] = target: PP2A catalytic subunit PP2AC4 (Arabidopsis thaliana) (UniProt P48578); assay: as above
[8] = target: GST-PP2AC3 (Arabidopsis thaliana) (UniProt Q07100); assay: pull-down; in vitro; GST fusions as bait, PYL1-His as prey; both purified
[9] = target: GST-PP2AC4 (Arabidopsis thaliana) (UniProt P48578); assay: as above
[10] = target: T1, PP2A scaffolding A subunit ROOTS CURL IN … ACID1 (RCN1) (Arabidopsis thaliana) (UniProt Q38845); assay: co-IP; in vivo; for PYL1 with or without treatment with 10 x 10^-6 M ABA for 4 h
T1 sequence: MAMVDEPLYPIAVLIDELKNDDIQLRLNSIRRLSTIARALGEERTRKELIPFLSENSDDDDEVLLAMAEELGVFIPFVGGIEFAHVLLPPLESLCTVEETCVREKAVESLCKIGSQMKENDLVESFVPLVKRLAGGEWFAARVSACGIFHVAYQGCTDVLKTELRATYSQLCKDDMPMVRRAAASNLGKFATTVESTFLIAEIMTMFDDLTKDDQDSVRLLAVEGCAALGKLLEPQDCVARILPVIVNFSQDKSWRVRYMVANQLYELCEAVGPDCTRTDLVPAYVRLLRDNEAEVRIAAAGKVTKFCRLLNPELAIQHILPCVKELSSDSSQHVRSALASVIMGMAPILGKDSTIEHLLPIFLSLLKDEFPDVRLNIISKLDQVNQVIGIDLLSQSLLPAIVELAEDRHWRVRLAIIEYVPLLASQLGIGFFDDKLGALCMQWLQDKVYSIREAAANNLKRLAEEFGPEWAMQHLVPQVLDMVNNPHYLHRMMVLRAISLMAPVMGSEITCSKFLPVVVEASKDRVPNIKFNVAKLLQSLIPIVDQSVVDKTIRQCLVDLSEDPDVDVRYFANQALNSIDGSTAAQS

Sequences of proteins named here, by UniProt entry; tags and fusion partners are left off.
UniProt Q07100: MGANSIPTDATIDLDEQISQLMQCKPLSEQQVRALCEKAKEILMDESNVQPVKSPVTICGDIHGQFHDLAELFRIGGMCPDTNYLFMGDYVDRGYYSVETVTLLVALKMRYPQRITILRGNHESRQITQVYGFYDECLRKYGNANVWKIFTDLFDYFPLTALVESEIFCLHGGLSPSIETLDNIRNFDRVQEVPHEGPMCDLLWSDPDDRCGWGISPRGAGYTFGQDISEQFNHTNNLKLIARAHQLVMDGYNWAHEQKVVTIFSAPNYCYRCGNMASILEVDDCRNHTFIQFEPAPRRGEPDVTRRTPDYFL
UniProt O04951: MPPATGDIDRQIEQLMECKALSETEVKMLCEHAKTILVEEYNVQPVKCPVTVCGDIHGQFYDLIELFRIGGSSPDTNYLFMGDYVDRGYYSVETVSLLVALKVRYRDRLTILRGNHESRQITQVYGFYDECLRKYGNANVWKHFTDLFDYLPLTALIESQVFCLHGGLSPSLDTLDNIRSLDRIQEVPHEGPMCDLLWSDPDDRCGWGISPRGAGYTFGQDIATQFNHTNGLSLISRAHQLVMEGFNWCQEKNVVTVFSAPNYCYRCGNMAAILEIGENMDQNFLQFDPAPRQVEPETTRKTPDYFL
UniProt Q07098: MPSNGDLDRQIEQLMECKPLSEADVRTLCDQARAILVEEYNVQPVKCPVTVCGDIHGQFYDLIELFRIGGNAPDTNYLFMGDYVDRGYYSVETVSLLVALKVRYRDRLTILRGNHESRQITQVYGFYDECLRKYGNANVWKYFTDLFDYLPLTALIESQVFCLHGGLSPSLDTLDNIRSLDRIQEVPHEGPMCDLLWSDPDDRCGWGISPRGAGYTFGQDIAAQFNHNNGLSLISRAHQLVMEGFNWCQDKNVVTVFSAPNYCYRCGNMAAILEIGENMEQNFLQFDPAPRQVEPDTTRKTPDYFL
UniProt Q07099: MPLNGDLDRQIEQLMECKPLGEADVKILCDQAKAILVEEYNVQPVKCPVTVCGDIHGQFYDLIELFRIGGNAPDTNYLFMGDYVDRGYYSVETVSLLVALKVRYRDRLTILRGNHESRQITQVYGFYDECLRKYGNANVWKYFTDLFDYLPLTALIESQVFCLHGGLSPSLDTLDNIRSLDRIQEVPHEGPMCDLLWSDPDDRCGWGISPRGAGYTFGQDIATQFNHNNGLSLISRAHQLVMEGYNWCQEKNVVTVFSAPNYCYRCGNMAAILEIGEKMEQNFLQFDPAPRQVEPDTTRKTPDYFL
UniProt P48578: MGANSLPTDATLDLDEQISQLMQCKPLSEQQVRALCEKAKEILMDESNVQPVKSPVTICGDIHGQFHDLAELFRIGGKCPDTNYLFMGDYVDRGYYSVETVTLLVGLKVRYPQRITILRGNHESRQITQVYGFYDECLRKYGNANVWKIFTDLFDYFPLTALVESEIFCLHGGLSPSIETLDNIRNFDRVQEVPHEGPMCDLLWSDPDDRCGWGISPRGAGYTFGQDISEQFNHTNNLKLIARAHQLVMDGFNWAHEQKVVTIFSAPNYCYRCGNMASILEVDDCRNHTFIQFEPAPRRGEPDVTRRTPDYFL
UniProt Q8VZS8: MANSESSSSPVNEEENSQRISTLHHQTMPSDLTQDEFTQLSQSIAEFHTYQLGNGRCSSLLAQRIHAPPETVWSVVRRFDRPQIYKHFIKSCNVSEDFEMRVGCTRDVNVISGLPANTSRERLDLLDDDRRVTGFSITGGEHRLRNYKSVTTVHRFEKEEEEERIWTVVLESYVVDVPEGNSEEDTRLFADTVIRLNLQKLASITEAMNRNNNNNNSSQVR
UniProt O49686: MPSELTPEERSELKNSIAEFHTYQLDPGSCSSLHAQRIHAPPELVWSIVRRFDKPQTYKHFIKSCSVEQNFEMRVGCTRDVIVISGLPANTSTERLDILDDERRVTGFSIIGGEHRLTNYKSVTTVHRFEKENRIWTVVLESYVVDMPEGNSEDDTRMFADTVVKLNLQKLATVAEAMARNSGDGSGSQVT

[11] = target: PP2AC4, luciferase complementation fusion (Arabidopsis thaliana) (UniProt P48578); assay: split reporter; firefly luciferase complementation imaging (LCI); Agrobacterium-mediated transient coexpression in Nicotiana benthamiana leaves; for PYL1 with PP2AC4 with or without ABA
[12] = target: PP2A catalytic subunit PP2AC3 (Arabidopsis thaliana) (UniProt Q07100); assay: co-IP; proteins extracted from cotransformed Arabidopsis protoplasts; in vivo
[13] = target: PP2A catalytic subunit PP2AC4 (Arabidopsis thaliana) (UniProt P48578); assay: as above
[14] = target: PP2AC3, luciferase complementation fusion (Arabidopsis thaliana) (UniProt Q07100); assay: split reporter; firefly luciferase complementation imaging (LCI); Agrobacterium-mediated transient coexpression in Nicotiana benthamiana leaves; for PYL1 with PP2AC4 with or without ABA
[15] = target: PP2AC4, luciferase complementation fusion (Arabidopsis thaliana) (UniProt P48578); assay: as above; remark: listed apart in the source

PYL1, yeast two-hybrid fusion (from UniProt Q8VZS8 1-221) (receptor)
binding [1]: binds
binding [2]: binds
binding [3]: binds
binding [4]: binds
binding [5]: binds

PYR1 ABA receptor (from UniProt O49686 1-191)
binding [6]: binds
binding [7]: binds

PYL1-His (from UniProt Q8VZS8 1-221) (receptor)
binding [8]: binds
binding [9]: binds

PYL1 ABA receptor (from UniProt Q8VZS8 1-221)
binding [6]: binds
binding [7]: binds
binding [10]: no binding

PYL1, luciferase complementation fusion (from UniProt Q8VZS8 1-221) (receptor)
binding [11]: binds

B1: PINOID (PID) kinase (enzyme, UniProt O64682 1-438)
chain: MLRESDGEMSLGTTNSPISSGTESCSSFSRLSFDAPPSTIPEEESFLSLKPHRSSDFAYAEIRRRKKQGLTFRDFRLMRRIGAGDIGTVYLCRLAGDEEESRSSYFAMKVVDKEALALKKKMHRAEMEKTILKMLDHPFLPTLYAEFEASHFSCIVMEYCSGGDLHSLRHRQPHRRFSLSSARFYAAEVLVALEYLHMLGIIYRDLKPENILVRSDGHIMLSDFDLSLCSDSIAAVESSSSSPENQQLRSPRRFTRLARLFQRVLRSKKVQTLEPTRLFVAEPVTARSGSFVGTHEYVAPEVASGGSHGNAVDWWAFGVFLYEMIYGKTPFVAPTNDVILRNIVKRQLSFPTDSPATMFELHARNLISGLLNKDPTKRLGSRRGAAEVKVHPFFKGLNFALIRTLTPPEIPSSVVKKPMKSATFSGRSSNKPAAFDYF
binding [12]: binds
binding [13]: binds

B2: PYL2 ABA receptor (receptor, UniProt O80992 1-190)
chain: MSSSPAVKGLTDEEQKTLEPVIKTYHQFEPDPTTCTSLITQRIHAPASVVWPLIRRFDNPERYKHFVKRCRLISGDGDVGSVREVTVISGLPASTSTERLEFVDDDHRVLSFRVVGGEHRLKNYKSVTSVNEFLNQDSGKVYTVVLESYTVDIPEGNTEEDTKMFVDTVVKLNLQKLGVAATSAPMHDDE
binding [6]: binds
binding [7]: binds

B3: PYL4 ABA receptor (receptor, UniProt O80920 1-207)
chain: MLAVHRPSSAVSDGDSVQIPMMIASFQKRFPSLSRDSTAARFHTHEVGPNQCCSAVIQEISAPISTVWSVVRRFDNPQAYKHFLKSCSVIGGDGDNVGSLRQVHVVSGLPAASSTERLDILDDERHVISFSVVGGDHRLSNYRSVTTLHPSPISGTVVVESYVVDVPPGNTKEETCDFVDVIVRCNLQSLAKIAENTAAESKKKMSL
binding [6]: binds
binding [7]: binds

B4: PINOID (PID) kinase, luciferase complementation fusion (enzyme, UniProt O64682 1-438)
chain: B1 chain
binding [14]: binds
binding [15]: binds

Reference: article PMC7001640
